Data on one molecule can be found in the M2OR odorant receptor database.

Details in all cases: stereoisomer not certain
For one test, the target named is T1, UniProt Q8VGH1.
T1 sequence (whole entry): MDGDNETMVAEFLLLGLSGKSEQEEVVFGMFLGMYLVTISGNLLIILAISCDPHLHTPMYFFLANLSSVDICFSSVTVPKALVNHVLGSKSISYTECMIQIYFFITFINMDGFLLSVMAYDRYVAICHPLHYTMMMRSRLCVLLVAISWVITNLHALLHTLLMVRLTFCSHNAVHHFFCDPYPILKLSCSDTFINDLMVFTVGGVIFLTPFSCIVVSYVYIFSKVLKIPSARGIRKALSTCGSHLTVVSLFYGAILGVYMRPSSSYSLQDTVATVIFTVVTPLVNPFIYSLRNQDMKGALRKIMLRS
Summed up: (§1)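 Whether a receptor–molecule pair is responsive (active) rests on the original authors' judgment that its measured signal was statistically different from baseline. Pairs without that judgment are non-responsive (inactive). Sources used varied assay methods, commonly transient luciferase assays in mammalian cell lines.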

The target in another test is T2, UniProt Q8VGJ1.
T2 sequence (whole entry): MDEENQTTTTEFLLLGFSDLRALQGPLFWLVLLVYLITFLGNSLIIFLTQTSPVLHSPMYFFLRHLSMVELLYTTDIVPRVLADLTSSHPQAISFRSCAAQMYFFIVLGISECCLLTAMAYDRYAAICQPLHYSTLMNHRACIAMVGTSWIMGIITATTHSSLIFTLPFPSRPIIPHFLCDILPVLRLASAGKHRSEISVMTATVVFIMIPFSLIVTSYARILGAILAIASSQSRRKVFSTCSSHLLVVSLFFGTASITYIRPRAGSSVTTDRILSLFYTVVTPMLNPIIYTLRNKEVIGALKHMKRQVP
Summed up: as §1

A further test has as its target T3, UniProt Q8VGJ3.
T3 sequence (whole entry): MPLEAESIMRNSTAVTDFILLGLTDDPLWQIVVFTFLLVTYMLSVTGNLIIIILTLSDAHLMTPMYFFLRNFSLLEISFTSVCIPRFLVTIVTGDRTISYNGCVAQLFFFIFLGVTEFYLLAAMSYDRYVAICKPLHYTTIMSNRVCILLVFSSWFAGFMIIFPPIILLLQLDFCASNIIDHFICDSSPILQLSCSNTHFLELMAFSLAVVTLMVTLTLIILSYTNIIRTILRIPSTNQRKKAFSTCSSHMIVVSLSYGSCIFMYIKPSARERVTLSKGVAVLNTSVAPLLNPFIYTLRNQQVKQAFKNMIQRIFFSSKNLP
A digest of the protocol:
as §1

The target in another test is T4, UniProt Q8VGJ5.
T4 sequence (whole entry): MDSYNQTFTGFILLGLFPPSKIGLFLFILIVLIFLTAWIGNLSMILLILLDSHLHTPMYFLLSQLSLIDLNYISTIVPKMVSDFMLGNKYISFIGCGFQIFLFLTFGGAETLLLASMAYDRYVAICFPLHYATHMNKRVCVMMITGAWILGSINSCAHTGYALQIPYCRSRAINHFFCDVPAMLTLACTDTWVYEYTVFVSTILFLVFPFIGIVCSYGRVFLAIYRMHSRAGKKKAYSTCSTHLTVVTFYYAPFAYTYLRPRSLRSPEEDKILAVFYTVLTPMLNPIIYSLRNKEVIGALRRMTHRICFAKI
A digest of the protocol: as §1

The target in the next test is T5, UniProt Q8VGL0.
T5 sequence (whole entry): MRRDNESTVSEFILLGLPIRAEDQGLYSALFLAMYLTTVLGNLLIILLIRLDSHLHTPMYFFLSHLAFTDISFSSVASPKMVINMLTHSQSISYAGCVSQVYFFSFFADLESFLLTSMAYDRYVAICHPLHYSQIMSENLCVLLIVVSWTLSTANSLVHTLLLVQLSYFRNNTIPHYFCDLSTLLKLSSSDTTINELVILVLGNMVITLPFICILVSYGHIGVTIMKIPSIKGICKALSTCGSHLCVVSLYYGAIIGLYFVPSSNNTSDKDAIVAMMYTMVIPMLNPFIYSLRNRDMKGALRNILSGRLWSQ
Summed up:
as §1

The target in another test is T6, UniProt Q8VGL7.
T6 sequence (whole entry): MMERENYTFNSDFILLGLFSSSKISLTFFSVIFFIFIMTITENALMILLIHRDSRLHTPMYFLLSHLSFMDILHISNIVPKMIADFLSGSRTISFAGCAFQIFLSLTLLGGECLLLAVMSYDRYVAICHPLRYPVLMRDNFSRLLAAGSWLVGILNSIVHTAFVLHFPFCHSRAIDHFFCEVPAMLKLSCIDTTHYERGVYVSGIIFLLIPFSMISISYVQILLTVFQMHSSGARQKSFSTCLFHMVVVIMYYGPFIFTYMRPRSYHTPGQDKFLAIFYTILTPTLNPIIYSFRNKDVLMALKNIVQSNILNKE
A digest of the protocol:
as §1

The next test has as its target T7, UniProt Q8VGM2.
T7 sequence (whole entry): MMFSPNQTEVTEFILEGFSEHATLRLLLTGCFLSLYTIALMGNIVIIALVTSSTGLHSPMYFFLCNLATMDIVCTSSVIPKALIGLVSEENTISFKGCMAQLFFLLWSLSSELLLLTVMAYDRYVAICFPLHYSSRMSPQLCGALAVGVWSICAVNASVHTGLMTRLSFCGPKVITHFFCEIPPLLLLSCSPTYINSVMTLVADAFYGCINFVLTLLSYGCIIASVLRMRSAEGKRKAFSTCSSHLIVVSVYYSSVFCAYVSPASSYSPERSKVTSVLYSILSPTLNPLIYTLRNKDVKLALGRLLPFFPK
Summed up: as §1

The target of the next test is T8, UniProt Q8VGP6.
T8 sequence (whole entry): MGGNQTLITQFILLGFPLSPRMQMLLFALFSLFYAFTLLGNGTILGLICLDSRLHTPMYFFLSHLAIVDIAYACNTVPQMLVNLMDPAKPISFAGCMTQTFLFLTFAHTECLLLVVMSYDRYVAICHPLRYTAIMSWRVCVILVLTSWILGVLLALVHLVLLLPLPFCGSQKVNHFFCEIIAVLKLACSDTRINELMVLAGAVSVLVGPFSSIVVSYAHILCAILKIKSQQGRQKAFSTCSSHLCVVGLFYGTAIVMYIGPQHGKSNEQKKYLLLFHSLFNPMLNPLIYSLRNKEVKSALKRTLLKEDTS
A digest of the protocol:
as §1

In a further test the target is T9, UniProt Q8VGQ3.
T9 sequence (whole entry): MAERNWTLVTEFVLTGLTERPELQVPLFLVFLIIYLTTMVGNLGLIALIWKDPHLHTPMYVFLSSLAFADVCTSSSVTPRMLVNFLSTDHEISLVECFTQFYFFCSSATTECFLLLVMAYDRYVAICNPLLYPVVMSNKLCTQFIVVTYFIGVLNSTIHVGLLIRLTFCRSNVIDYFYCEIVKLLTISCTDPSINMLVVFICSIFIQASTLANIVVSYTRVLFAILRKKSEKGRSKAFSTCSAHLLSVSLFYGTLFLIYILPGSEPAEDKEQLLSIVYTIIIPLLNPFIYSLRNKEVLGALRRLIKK
A digest of the protocol: as §1

In a further test the target is T10, UniProt Q8VGT4.
T10 sequence (whole entry): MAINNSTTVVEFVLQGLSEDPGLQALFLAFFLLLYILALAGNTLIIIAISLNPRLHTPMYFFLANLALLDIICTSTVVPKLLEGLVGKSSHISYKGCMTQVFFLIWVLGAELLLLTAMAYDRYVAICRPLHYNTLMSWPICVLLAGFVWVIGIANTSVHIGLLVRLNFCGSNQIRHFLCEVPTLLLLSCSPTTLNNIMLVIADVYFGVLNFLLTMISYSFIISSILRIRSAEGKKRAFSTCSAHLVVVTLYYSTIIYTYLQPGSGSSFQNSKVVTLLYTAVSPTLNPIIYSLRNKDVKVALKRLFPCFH
Summed up:
as §1

The target of a further test is T11, UniProt Q8VGU3.
T11 sequence (whole entry): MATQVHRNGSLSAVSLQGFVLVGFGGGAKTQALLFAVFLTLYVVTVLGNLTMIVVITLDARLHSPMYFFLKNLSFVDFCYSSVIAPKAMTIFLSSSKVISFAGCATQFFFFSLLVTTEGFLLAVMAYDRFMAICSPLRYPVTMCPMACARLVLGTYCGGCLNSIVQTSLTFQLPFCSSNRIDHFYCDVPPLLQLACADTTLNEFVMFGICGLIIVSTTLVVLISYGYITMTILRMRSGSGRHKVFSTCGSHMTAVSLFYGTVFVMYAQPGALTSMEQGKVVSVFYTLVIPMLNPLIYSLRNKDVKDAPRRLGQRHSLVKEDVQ
Summed up:
as §1

The target in the next test is T12, UniProt Q8VGV1.
T12 sequence (whole entry): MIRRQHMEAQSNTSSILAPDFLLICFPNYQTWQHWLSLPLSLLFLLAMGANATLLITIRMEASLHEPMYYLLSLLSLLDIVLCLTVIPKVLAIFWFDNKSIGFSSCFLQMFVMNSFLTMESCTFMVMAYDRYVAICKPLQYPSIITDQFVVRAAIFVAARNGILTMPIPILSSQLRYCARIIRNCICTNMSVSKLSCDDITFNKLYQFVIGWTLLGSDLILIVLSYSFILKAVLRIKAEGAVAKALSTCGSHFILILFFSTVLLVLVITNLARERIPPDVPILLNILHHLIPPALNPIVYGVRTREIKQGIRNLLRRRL
Summed up: as §1

A further test addresses T13, UniProt Q8VGV7.
T13 sequence (whole entry): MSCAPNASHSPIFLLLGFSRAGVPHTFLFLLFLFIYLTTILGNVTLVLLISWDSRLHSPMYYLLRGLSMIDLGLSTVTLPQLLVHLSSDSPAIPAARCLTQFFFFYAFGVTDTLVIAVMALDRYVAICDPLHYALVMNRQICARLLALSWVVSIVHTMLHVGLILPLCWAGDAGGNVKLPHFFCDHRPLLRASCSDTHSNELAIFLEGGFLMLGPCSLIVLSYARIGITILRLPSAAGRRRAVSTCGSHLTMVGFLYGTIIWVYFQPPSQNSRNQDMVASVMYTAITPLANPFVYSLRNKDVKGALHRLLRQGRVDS
Summed up: as §1

The target in a further test is T14, UniProt Q8VGX3.
T14 sequence (whole entry): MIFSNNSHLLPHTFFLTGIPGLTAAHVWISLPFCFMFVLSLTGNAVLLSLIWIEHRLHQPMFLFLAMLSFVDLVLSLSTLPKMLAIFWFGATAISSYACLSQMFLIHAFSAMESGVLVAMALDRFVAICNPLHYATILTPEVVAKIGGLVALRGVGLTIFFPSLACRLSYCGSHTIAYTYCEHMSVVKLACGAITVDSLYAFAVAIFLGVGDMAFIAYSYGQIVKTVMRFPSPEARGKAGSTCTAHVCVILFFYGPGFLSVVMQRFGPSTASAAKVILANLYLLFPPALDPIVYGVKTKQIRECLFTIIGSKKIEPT
Summed up: as §1

Another test deals with T15, UniProt Q8VGX5.
T15 sequence (whole entry): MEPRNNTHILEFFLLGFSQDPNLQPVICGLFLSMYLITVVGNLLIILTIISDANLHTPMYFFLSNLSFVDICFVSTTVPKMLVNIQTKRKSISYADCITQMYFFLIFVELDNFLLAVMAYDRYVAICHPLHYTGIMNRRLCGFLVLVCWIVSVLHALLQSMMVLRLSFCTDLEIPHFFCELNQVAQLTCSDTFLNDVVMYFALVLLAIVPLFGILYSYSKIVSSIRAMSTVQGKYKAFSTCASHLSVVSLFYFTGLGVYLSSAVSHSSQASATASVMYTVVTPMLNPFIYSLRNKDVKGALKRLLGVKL
A digest of the protocol: as §1

A further test addresses T16, UniProt Q8VGX8.
T16 sequence (whole entry): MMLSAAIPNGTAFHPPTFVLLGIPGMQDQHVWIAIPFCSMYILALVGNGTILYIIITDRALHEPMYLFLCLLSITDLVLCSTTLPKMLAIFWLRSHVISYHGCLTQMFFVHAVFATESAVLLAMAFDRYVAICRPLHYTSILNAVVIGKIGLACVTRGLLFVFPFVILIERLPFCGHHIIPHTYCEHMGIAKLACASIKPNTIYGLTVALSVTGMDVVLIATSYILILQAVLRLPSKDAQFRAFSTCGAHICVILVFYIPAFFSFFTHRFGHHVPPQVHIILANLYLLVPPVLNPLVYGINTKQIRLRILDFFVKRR
Summed up:
as §1

The next test addresses T17, UniProt Q8VGY6.
T17 sequence (whole entry): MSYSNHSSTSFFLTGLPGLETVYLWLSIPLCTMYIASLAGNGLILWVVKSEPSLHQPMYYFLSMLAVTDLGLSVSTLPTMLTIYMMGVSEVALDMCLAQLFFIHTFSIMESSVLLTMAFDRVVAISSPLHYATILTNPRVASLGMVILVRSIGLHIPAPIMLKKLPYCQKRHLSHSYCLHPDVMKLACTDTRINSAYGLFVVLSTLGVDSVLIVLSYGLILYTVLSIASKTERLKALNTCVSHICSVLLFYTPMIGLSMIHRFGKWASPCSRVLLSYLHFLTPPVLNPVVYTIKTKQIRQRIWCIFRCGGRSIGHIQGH
A digest of the protocol: as §1

The target of the next test is T18, UniProt Q8VGZ2.
T18 sequence (whole entry): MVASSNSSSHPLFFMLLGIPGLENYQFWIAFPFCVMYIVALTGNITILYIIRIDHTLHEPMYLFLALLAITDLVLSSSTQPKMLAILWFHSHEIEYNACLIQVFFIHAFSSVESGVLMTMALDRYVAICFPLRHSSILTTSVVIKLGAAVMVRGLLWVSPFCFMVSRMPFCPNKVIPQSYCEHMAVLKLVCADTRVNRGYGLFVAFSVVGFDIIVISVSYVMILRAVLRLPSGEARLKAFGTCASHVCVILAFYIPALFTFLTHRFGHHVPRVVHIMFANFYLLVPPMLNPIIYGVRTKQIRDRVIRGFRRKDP
A digest of the protocol: as §1

Only a part is listed here, and it is no random draw. Calls are pooled over several reports, among them a noisy single-well screen.
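Note: active if original authors judged signal statistically different from baseline.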

Turning to `CCCCCCCCCC=O`, the “odorant receptor agonist call” value with UniProt Q8VGH1, with UniProt Q8VGJ1, with UniProt Q8VGJ3, with UniProt Q8VGJ5, with UniProt Q8VGL0 and with UniProt Q8VGL7 was “inactive” each time. The “odorant receptor agonist call” value in the test with UniProt Q8VGM2, with UniProt Q8VGP6, in the test with UniProt Q8VGQ3, with UniProt Q8VGT4, with UniProt Q8VGU3 and in the test with UniProt Q8VGV1 was “inactive” throughout. The “odorant receptor agonist call” value with UniProt Q8VGV7, with UniProt Q8VGX3, in the test with UniProt Q8VGX5, with UniProt Q8VGX8 and in the test with UniProt Q8VGY6 was “inactive” each time. Moreover, the “odorant receptor agonist call” value with UniProt Q8VGZ2 is “active”.
